Laboratory results reported in the supplement of paper PMC6411743.
± gives the standard deviation of the averaged measurements. The list shows a part of the results, in another mix than the full data.

Sequences of proteins named here, by UniProt entry; tags and fusion partners are left off. A change or cut given only in a name is not applied to a line headed by its entry.
UniProt Q7Z3E2: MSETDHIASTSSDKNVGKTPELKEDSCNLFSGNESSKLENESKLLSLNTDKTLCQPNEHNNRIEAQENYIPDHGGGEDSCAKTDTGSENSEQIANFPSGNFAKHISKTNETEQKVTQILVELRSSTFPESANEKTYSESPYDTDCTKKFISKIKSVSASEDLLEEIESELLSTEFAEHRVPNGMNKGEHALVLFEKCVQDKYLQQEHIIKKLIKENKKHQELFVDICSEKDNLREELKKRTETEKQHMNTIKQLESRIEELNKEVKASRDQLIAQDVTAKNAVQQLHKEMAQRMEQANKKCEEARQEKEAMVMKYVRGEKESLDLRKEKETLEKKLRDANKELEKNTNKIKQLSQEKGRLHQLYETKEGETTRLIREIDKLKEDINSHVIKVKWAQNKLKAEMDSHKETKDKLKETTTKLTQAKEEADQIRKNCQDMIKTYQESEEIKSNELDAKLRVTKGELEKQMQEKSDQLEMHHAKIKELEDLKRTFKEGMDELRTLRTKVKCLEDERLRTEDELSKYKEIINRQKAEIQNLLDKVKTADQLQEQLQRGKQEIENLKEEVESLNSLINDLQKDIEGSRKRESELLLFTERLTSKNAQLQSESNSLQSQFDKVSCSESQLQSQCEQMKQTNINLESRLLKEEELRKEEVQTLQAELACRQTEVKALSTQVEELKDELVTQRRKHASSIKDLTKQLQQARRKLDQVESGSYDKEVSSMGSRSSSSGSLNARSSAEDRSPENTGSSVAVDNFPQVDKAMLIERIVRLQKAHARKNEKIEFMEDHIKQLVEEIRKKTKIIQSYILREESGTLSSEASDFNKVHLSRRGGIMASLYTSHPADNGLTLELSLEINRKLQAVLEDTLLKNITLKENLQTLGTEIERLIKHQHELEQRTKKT
UniProt Q6STE5, whole entry: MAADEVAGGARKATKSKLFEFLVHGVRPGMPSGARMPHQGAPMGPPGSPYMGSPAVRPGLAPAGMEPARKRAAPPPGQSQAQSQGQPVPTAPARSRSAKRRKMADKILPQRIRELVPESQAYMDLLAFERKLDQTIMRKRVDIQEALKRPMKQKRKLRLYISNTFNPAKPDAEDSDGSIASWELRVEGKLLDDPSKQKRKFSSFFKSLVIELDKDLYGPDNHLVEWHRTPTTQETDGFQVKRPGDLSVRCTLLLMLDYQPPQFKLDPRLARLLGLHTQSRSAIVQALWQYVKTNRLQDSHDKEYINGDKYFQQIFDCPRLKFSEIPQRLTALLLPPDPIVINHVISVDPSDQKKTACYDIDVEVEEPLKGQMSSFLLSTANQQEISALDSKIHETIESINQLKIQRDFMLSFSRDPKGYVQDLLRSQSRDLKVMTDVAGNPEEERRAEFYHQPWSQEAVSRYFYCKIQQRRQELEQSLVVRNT
UniProt Q6MZP7: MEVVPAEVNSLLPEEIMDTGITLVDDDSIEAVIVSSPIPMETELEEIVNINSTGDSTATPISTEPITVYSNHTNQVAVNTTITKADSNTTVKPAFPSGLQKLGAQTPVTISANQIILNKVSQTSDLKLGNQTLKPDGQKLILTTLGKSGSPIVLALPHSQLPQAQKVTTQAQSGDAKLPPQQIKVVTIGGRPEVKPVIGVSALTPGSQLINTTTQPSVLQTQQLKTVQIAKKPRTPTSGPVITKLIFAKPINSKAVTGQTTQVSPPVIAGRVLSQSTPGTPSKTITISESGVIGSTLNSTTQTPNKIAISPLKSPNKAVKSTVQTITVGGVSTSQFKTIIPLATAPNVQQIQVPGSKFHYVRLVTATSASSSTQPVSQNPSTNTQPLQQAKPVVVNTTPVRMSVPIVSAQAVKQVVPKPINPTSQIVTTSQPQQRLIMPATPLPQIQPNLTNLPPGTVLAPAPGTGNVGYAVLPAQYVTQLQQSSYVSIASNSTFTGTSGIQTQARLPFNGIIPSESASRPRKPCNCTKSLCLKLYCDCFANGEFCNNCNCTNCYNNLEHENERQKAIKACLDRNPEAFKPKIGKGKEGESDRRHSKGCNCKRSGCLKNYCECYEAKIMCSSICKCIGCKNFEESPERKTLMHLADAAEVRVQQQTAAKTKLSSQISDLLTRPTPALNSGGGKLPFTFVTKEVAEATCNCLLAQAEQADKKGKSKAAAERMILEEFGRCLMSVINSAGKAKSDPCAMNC
UniProt Q7L0J3, whole entry: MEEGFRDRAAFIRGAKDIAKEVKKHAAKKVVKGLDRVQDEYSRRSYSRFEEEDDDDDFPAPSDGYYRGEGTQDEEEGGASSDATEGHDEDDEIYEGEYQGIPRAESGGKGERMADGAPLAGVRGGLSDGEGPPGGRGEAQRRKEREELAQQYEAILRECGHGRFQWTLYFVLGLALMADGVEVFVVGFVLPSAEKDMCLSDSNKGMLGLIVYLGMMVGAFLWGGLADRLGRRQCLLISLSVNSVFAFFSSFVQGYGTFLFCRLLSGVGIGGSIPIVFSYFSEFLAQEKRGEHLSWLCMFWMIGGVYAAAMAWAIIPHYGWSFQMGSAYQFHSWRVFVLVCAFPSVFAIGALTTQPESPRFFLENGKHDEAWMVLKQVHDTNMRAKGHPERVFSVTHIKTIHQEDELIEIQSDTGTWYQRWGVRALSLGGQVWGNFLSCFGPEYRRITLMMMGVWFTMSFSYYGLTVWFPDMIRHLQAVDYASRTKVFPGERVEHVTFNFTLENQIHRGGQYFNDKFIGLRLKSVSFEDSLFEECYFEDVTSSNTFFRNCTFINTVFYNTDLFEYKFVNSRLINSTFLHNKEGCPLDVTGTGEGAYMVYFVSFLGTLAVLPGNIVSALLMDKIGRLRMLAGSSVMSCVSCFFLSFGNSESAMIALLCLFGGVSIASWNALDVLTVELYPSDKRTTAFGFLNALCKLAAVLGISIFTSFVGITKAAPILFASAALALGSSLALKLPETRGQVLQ
UniProt Q6Y7W6: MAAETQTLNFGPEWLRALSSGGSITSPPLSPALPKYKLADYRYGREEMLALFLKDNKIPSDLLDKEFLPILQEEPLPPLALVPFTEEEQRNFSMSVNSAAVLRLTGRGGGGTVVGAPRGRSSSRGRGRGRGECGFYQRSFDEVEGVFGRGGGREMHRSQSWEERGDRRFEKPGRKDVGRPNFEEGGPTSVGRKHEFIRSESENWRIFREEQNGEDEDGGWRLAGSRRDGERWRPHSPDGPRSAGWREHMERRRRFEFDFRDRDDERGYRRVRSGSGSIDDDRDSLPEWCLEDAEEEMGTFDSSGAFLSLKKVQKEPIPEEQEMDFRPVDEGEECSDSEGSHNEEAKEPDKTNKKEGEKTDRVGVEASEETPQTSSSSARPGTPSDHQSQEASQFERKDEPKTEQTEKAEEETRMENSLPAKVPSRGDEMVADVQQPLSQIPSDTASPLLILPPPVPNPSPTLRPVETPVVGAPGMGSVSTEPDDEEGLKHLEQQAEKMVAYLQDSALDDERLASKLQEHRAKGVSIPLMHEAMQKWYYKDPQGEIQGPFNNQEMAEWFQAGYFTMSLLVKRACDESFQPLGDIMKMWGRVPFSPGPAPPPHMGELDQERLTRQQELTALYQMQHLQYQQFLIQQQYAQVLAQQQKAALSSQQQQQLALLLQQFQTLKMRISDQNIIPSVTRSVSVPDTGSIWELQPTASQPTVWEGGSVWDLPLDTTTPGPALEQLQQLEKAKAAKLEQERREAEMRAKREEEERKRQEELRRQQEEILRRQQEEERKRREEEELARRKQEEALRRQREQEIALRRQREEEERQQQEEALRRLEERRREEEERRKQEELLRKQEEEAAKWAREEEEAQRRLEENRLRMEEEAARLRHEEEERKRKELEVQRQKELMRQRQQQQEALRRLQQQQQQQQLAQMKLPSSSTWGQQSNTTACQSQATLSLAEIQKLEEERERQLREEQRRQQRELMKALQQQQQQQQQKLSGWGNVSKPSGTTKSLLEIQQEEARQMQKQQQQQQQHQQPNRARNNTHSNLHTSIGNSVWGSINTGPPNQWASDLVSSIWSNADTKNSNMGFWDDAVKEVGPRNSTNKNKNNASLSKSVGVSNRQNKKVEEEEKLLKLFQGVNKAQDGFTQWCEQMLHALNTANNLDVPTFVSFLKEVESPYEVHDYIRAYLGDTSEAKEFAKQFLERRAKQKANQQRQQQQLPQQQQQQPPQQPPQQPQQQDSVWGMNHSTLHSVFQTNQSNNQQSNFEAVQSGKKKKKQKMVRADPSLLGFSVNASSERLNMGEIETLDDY
UniProt Q7Z6B0: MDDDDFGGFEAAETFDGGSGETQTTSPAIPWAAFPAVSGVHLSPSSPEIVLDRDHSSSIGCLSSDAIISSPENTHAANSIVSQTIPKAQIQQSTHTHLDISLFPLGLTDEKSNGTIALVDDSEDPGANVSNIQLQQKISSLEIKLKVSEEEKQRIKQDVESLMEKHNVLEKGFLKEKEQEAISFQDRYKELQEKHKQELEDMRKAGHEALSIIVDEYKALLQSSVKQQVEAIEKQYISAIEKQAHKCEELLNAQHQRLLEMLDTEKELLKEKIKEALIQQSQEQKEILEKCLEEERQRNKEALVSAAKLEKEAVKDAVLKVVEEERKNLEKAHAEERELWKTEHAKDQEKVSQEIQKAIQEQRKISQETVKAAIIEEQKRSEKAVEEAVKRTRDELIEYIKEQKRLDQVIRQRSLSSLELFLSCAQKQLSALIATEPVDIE
UniProt Q7RTV0, whole entry, looked up: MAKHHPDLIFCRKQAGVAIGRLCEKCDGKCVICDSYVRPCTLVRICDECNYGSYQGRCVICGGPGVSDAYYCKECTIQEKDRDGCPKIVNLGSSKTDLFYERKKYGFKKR
UniProt Q6ZNB6: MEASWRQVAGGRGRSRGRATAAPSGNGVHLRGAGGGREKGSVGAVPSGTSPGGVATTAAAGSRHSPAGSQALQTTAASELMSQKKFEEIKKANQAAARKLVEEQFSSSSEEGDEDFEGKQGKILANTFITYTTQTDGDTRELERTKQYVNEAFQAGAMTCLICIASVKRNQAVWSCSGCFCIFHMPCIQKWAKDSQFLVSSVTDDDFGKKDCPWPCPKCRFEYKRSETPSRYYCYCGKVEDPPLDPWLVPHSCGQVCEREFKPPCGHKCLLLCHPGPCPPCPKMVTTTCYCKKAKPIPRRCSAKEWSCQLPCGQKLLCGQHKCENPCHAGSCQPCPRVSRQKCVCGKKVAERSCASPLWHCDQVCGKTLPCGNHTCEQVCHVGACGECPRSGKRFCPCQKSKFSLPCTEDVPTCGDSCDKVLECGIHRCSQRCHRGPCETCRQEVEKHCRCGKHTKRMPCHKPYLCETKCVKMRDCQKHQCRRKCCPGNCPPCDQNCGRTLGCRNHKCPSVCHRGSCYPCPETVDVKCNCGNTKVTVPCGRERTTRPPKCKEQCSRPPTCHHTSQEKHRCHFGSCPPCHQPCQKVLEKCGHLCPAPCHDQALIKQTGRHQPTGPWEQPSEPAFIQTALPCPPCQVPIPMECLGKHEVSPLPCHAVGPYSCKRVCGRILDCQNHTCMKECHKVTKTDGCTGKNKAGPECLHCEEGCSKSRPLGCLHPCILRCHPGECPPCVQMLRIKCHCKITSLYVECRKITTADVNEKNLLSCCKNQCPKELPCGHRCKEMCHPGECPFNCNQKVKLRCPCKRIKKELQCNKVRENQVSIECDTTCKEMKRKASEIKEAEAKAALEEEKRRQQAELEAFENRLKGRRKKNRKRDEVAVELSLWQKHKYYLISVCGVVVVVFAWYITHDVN
UniProt Q7Z4H7: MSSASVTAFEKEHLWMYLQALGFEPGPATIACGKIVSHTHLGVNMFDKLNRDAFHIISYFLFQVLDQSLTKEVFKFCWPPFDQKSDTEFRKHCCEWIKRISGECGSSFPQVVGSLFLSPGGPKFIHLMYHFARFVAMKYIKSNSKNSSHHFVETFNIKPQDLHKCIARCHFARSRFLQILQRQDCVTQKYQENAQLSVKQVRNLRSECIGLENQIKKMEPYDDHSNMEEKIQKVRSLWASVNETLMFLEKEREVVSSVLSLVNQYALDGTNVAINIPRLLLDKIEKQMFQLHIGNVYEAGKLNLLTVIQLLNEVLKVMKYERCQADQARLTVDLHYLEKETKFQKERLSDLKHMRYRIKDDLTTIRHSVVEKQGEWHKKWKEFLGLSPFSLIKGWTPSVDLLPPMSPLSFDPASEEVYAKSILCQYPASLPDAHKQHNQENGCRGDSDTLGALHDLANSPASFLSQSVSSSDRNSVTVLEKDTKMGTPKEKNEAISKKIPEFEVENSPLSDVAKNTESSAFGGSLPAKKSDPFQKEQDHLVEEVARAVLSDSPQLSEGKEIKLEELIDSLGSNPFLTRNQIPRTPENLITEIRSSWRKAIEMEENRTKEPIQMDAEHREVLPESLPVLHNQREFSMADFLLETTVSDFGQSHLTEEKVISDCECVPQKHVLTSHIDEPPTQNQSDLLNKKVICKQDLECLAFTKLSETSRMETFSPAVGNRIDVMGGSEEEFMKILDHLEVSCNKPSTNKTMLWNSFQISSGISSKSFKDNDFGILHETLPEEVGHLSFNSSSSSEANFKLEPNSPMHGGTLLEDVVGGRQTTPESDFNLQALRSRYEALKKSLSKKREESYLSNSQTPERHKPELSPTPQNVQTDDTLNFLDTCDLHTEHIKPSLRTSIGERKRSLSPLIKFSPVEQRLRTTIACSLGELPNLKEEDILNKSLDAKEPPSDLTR

Compound: Nc1ncnc2c1ncn2[C@@H]1O[C@H](COP(=O)(O)OP(=O)(O)NP(=O)(O)O)[C@@H](O)[C@H]1O [adenylyl imidodiphosphate]
Test: NP40-soluble protein abundance relative to vehicle (solubility fold change) (ratio); higher = more soluble protein in presence of AMP-PNP
How it was run: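 Each value is a fold change relative to the detergent-processed vehicle, calculated per replicate from vsn-normalised intensities. Jurkat crude lysate received eight concentrations (0.1 to 10 mM) for 10 min at room temperature and 3 min at 37 °C, then was solubilised in 0.8% NP40 with benzonase (60 min, 4 °C). The ultracentrifuged supernatant was TMT-labelled and run by LC-MS/MS in three independent experiments.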

Target	NP40-soluble protein abundance (concentration: 1mM)	NP40-soluble protein abundance (concentration: 2mM)	NP40-soluble protein abundance (concentration: 4mM)	NP40-soluble protein abundance (concentration: 6mM)	NP40-soluble protein abundance (concentration: 8mM)	NP40-soluble protein abundance (concentration: 10mM)
ZCCHC8 (UniProt Q6NZY4)	1.03 ± 0.056	1.09 ± 0.035	1.03 ± 0.031	1.03 ± 0.092	0.998 ± 0.046	1.05 ± 0.066
UniProt Q7Z3E2	0.945 ± 0.015	0.996 ± 0.038	0.974 ± 0.012	0.964 ± 0.014	0.9648 ± 0.0041	0.9661 ± 0.0039
UniProt Q6STE5 and related entries	0.994 ± 0.051	0.986 ± 0.031	0.99 ± 0.048	0.982 ± 0.013	0.999 ± 0.019	0.993 ± 0.027
TTC33 (UniProt Q6PID6)	0.981 ± 0.011	1.02 ± 0.025	0.946 ± 0.037	0.949 ± 0.032	0.912 ± 0.018	0.9185 ± 0.004
UniProt Q6GMV3	0.9658 ± 0.0019	0.97 ± 0.029	0.907 ± 0.037	0.875 ± 0.042	0.872 ± 0.016	0.819 ± 0.031
UniProt Q7L0Y3	1 ± 0.017	1 ± 0.042	1.07 ± 0.047	1.14 ± 0.096	1.17 ± 0.092	1.13 ± 0.081
LIN54 (UniProt Q6MZP7)	1.03 ± 0.036	1.09 ± 0.019	1.08 ± 0.038	1.06 ± 0.051	1.06 ± 0.043	1.11 ± 0.038
TAF2 (UniProt Q6P1X5)	0.9983 ± 0.005	0.991 ± 0.018	0.9863 ± 0.0071	1 ± 0.044	1.01 ± 0.04	0.992 ± 0.076
UniProt Q659A1	1.03 ± 0.039	1.04 ± 0.043	1.04 ± 0.044	1.03 ± 0.011	1.03 ± 0.034	1.06 ± 0.087
UniProt Q7L4I2 and related entries	1 ± 0.031	1.04 ± 0.11	0.977 ± 0.061	0.96 ± 0.04	0.932 ± 0.05	0.984 ± 0.049
UniProt Q7L0J3 and related entries	1 ± 0.032	1.05 ± 0.072	1.03 ± 0.031	1.02 ± 0.025	1.03 ± 0.033	1.02 ± 0.028
RAB11FIP1 (UniProt Q6WKZ4)	1.02 ± 0.037	1.06 ± 0.053	1.05 ± 0.041	1.02 ± 0.039	0.999 ± 0.033	1.03 ± 0.024
UniProt Q5VZI3 and related entries	0.981 ± 0.025	1 ± 0.018	1 ± 0.015	1.02 ± 0.013	1.01 ± 0.032	0.98 ± 0.022
CYFIP1 (UniProt Q7L576)	0.969 ± 0.041	0.874 ± 0.072	0.973 ± 0.025	0.946 ± 0.039	1.02 ± 0.069	0.946 ± 0.081
UniProt Q7Z406 and related entries	0.988 ± 0.013	0.96 ± 0.067	0.956 ± 0.049	1.0353 ± 0.00083	1.013 ± 0.0054	0.983 ± 0.025
UniProt Q7L5N7 and related entries	0.987 ± 0.031	0.966 ± 0.051	0.979 ± 0.037	0.99 ± 0.035	0.985 ± 0.028	1.01 ± 0.036
UniProt Q6Y7W6 and related entries	1.02 ± 0.045	1.09 ± 0.057	1.06 ± 0.039	1.07 ± 0.058	1.05 ± 0.043	1.11 ± 0.045
THOC7 (UniProt Q6I9Y2)	1.29 ± 0.045	1.47 ± 0.2	1.57 ± 0.24	1.73 ± 0.39	1.85 ± 0.47	1.93 ± 0.64
DYM (UniProt Q7RTS9)	1 ± 0.013	0.972 ± 0.02	0.994 ± 0.0098	0.9857 ± 0.0095	0.997 ± 0.018	0.9736 ± 0.0051
DHX57 (UniProt Q6P158)	1.02 ± 0.024	1.03 ± 0.053	1.05 ± 0.044	1.03 ± 0.023	1.02 ± 0.012	1.02 ± 0.017

Target	NP40-soluble protein abundance (concentration: 1mM)	NP40-soluble protein abundance (concentration: 2mM)	NP40-soluble protein abundance (concentration: 4mM)	NP40-soluble protein abundance (concentration: 6mM)	NP40-soluble protein abundance (concentration: 8mM)	NP40-soluble protein abundance (concentration: 10mM)
UniProt Q6SJ93 and related entries	0.975 ± 0.024	0.943 ± 0.05	0.961 ± 0.027	0.909 ± 0.019	0.9042 ± 0.0059	0.884 ± 0.023
SLC30A9 (UniProt Q6PML9)	1.01 ± 0.018	0.9905 ± 0.0025	1.02 ± 0.011	0.973 ± 0.042	1.01 ± 0.018	0.997 ± 0.028
UniProt Q70UQ0 and related entries	1.01 ± 0.025	1.03 ± 0.036	0.991 ± 0.056	0.994 ± 0.06	0.982 ± 0.017	0.936 ± 0.031
UniProt Q6UXH1 and related entries	1.01 ± 0.032	1.07 ± 0.056	1.01 ± 0.029	0.964 ± 0.019	0.956 ± 0.045	1.01 ± 0.029
UniProt Q6QNY1 and related entries	0.993 ± 0.062	0.982 ± 0.083	0.981 ± 0.042	0.955 ± 0.052	0.958 ± 0.047	0.955 ± 0.041
UniProt Q7Z5K2-2|Q7Z5K2-3|Q7Z5K2	1.04 ± 0.017	1.021 ± 0.003	1.01 ± 0.022	0.993 ± 0.038	0.972 ± 0.038	0.998 ± 0.039
UniProt Q6R327 and related entries	1.01 ± 0.018	0.979 ± 0.023	1.01 ± 0.027	0.981 ± 0.029	0.99 ± 0.055	0.968 ± 0.049
UniProt Q5XUX1 and related entries	0.986 ± 0.017	0.96 ± 0.042	0.976 ± 0.026	0.993 ± 0.021	0.982 ± 0.024	0.969 ± 0.028
NADSYN1 (UniProt Q6IA69)	0.994 ± 0.023	0.958 ± 0.039	0.979 ± 0.012	0.968 ± 0.035	0.99 ± 0.04	0.984 ± 0.038
UniProt Q7KYR7 and related entries	0.978 ± 0.025	0.972 ± 0.015	0.959 ± 0.015	0.986 ± 0.039	0.971 ± 0.022	0.985 ± 0.049
UniProt Q68DK2 and related entries	0.985 ± 0.021	0.966 ± 0.028	0.962 ± 0.03	1.02 ± 0.06	1.02 ± 0.031	1.02 ± 0.051
ZNF318 (UniProt Q5VUA4)	0.979 ± 0.076	1.04 ± 0.028	0.976 ± 0.063	0.967 ± 0.089	0.92 ± 0.072	0.967 ± 0.1
UniProt Q7Z6B0 and related entries	1.03 ± 0.02	1.1 ± 0.088	1.04 ± 0.048	1.004 ± 0.0086	0.97 ± 0.044	0.994 ± 0.04
RAB12 (UniProt Q6IQ22)	0.994 ± 0.056	0.959 ± 0.056	0.988 ± 0.068	0.967 ± 0.024	0.99 ± 0.077	1 ± 0.057
UniProt Q7RTV0	1.06 ± 0.071	1.1 ± 0.081	1.06 ± 0.048	1.16 ± 0.045	1.15 ± 0.051	1.19 ± 0.13
UniProt Q71F23	1.05 ± 0.028	1.07 ± 0.034	1.03 ± 0.016	1.02 ± 0.039	1.07 ± 0.013	1.08 ± 0.0087
UniProt Q5VW36 and related entries	0.955 ± 0.016	0.915 ± 0.049	0.957 ± 0.03	0.935 ± 0.03	0.952 ± 0.025	0.936 ± 0.035
NFXL1 (UniProt Q6ZNB6)	1.02 ± 0.055	1.06 ± 0.031	1.05 ± 0.082	0.997 ± 0.042	1.03 ± 0.06	0.964 ± 0.035
METTL2B (UniProt Q6P1Q9)	1.02 ± 0.017	1.01 ± 0.026	1.01 ± 0.053	0.979 ± 0.015	0.981 ± 0.005	1 ± 0.033
UniProt Q7Z392	0.985 ± 0.027	0.949 ± 0.077	0.996 ± 0.023	0.932 ± 0.012	0.96 ± 0.035	0.925 ± 0.038

2 records picked at random from the list so far, as already listed:
Target	NP40-soluble protein abundance (concentration: 1mM)	NP40-soluble protein abundance (concentration: 2mM)	NP40-soluble protein abundance (concentration: 4mM)	NP40-soluble protein abundance (concentration: 6mM)	NP40-soluble protein abundance (concentration: 8mM)	NP40-soluble protein abundance (concentration: 10mM)
UniProt Q7Z406 and related entries	0.988 ± 0.013	0.96 ± 0.067	0.956 ± 0.049	1.0353 ± 0.00083	1.013 ± 0.0054	0.983 ± 0.025
UniProt Q6R327 and related entries	1.01 ± 0.018	0.979 ± 0.023	1.01 ± 0.027	0.981 ± 0.029	0.99 ± 0.055	0.968 ± 0.049

Going on with the list:

Target	NP40-soluble protein abundance (concentration: 1mM)	NP40-soluble protein abundance (concentration: 2mM)	NP40-soluble protein abundance (concentration: 4mM)	NP40-soluble protein abundance (concentration: 6mM)	NP40-soluble protein abundance (concentration: 8mM)	NP40-soluble protein abundance (concentration: 10mM)
UniProt Q6V1X1 and related entries	0.915 ± 0.044	0.87 ± 0.079	0.88 ± 0.016	0.887 ± 0.022	0.8901 ± 0.0078	0.844 ± 0.033
Q5VY60 and related entries (UniProt Q7Z4H7)	1.04 ± 0.011	1.02 ± 0.055	1.01 ± 0.028	1.02 ± 0.032	1.02 ± 0.034	1.02 ± 0.027
UniProt Q6UXN9 and related entries	0.986 ± 0.051	0.916 ± 0.035	1.03 ± 0.083	1.06 ± 0.11	1.139 ± 0.009	1.08 ± 0.11
UniProt Q6YP21 and related entries	0.997 ± 0.011	0.914 ± 0.091	0.9957 ± 0.0071	0.987 ± 0.071	1.04 ± 0.074	1.02 ± 0.063
BLOC1S3 (UniProt Q6QNY0)	0.992 ± 0.007	1.03 ± 0.033	1.03 ± 0.03	1.03 ± 0.039	1.037 ± 0.0084	1.03 ± 0.02
PACS1 (UniProt Q6VY07)	1.02 ± 0.03	1.01 ± 0.03	1.023 ± 0.0059	0.984 ± 0.016	1.02 ± 0.021	1.03 ± 0.023
TRIM65 (UniProt Q6PJ69)	1.02 ± 0.029	0.952 ± 0.052	0.981 ± 0.033	0.971 ± 0.012	0.968 ± 0.019	0.96 ± 0.021
FASTKD5 (UniProt Q7L8L6)	0.979 ± 0.032	0.966 ± 0.027	0.968 ± 0.031	0.951 ± 0.015	0.946 ± 0.018	0.966 ± 0.047
ERAP2 (UniProt Q6P179)	0.976 ± 0.03	1.01 ± 0.11	1.04 ± 0.08	1.12 ± 0.1	1.09 ± 0.07	1.14 ± 0.088
ELMSAN1 (UniProt Q6PJG2)	1.03 ± 0.026	1.06 ± 0.059	1.06 ± 0.043	1.02 ± 0.019	1.023 ± 0.0066	1.04 ± 0.036
NUDT18 (UniProt Q6ZVK8)	0.968 ± 0.017	0.966 ± 0.033	0.96 ± 0.014	0.986 ± 0.025	0.999 ± 0.037	0.98 ± 0.022
UniProt Q6P2H3 and related entries	1.01 ± 0.035	1.04 ± 0.061	0.9772 ± 0.0087	0.943 ± 0.026	0.901 ± 0.017	0.942 ± 0.031
UniProt Q7L9L4	1.02 ± 0.043	0.899 ± 0.028	1.02 ± 0.061	0.997 ± 0.092	1.05 ± 0.13	0.992 ± 0.08
Q76L82 and related entries (UniProt Q8IXJ9+Q76L82)	0.98 ± 0.025	1.01 ± 0.03	0.984 ± 0.012	1.02 ± 0.029	1.03 ± 0.029	1.05 ± 0.014
UniProt Q6P1J9	0.9892 ± 0.0083	0.957 ± 0.039	0.988 ± 0.036	0.985 ± 0.024	0.986 ± 0.025	0.955 ± 0.025
RCSD1 (UniProt Q6JBY9)	1.01 ± 0.04	1.06 ± 0.066	0.974 ± 0.048	0.943 ± 0.059	0.907 ± 0.017	0.897 ± 0.032
UniProt Q68CP9 and related entries	1.06 ± 0.038	1.08 ± 0.044	1.1 ± 0.067	1.12 ± 0.099	1.12 ± 0.098	1.22 ± 0.15
UniProt Q7Z5J4 and related entries	1.06 ± 0.027	1.14 ± 0.064	1.14 ± 0.021	1.16 ± 0.091	1.2 ± 0.086	1.28 ± 0.097
LARP1 (UniProt Q6PKG0)	1.02 ± 0.069	1.06 ± 0.034	0.998 ± 0.069	0.971 ± 0.058	0.966 ± 0.063	1.01 ± 0.062
UniProt Q6GYQ0 and related entries	1 ± 0.027	0.986 ± 0.021	0.966 ± 0.036	0.925 ± 0.058	0.901 ± 0.026	0.92 ± 0.051
